The values that follow come from paper doi:10.1101/2023.07.24.550302.

By UniProt entry, the sequences of proteins in these tests, tags left out.
UniProt Q8TAF3: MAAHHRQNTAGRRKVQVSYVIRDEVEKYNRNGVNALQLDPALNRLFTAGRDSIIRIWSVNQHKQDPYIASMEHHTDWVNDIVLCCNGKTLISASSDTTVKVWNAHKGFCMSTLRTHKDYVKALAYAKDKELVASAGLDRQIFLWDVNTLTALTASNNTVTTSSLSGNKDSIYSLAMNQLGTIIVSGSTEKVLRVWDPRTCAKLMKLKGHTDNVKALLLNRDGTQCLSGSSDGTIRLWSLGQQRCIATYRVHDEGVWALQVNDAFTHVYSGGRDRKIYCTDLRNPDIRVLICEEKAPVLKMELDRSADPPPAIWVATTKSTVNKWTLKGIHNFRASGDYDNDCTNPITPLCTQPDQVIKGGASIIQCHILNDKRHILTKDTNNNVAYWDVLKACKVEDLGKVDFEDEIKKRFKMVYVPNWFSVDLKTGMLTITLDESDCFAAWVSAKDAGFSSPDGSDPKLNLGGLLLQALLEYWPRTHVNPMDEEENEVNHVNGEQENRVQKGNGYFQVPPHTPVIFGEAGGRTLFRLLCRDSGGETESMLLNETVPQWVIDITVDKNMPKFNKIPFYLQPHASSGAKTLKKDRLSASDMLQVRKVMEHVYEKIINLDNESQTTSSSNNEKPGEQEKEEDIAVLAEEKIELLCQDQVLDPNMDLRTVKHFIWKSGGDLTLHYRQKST

No constants are given. Whether binding was seen depends on the method and setting. Some binding calls cover weakened binding; strength is not graded here. Where a sequence is shown, tags or fusion partners need not be part of it.

The target of the assay is T1, USP1 (G670A + G671A, N-terminal his-tag) (human) (UniProt O94782).
T1 sequence: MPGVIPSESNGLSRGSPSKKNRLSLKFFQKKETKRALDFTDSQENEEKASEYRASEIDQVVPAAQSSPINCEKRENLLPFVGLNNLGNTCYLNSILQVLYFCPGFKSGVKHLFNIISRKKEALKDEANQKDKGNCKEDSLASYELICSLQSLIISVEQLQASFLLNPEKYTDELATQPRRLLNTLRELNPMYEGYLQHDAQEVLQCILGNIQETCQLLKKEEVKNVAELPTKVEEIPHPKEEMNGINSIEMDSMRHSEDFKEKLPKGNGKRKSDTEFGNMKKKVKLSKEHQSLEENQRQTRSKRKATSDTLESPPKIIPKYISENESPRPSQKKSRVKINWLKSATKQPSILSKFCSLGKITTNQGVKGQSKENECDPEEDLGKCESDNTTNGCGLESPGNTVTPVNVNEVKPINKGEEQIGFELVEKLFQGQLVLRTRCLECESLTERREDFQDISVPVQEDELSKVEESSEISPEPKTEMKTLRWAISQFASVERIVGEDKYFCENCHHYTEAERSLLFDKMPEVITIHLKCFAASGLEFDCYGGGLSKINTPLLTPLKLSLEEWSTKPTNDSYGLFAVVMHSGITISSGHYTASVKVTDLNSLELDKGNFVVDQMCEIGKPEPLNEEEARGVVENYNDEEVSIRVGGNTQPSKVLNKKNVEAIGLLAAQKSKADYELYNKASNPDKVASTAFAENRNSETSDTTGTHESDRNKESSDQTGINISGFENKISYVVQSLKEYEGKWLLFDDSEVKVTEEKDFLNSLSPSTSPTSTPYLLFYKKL
Put plainly: co-purification after co-expression.

Regarding “UAF1 (N-terminal strep-tag) (from UniProt Q8TAF3 1-677)”, the binding entry was “binds”.
